Among the data in patent US20180141988A1 (Pieris, published 2018) are binding values, retold here.

Protein sequences, listed by entry. Tags and fused reporters are not part of them. Residues count along the entry.
UniProt P51654, residues 25-559: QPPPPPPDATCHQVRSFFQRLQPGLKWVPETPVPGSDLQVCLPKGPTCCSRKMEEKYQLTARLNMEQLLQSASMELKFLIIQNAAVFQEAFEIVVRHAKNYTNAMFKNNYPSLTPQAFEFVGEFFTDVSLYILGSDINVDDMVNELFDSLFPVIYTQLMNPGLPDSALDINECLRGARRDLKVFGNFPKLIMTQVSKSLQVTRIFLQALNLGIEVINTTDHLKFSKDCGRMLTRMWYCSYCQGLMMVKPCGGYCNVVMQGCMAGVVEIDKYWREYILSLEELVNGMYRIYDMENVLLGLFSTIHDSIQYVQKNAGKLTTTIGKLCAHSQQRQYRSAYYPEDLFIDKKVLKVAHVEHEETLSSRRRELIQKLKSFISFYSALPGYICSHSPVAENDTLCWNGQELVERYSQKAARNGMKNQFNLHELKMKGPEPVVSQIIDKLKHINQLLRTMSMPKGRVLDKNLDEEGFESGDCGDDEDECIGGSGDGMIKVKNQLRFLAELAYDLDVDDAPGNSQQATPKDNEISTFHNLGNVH
UniProt Q8CFZ4: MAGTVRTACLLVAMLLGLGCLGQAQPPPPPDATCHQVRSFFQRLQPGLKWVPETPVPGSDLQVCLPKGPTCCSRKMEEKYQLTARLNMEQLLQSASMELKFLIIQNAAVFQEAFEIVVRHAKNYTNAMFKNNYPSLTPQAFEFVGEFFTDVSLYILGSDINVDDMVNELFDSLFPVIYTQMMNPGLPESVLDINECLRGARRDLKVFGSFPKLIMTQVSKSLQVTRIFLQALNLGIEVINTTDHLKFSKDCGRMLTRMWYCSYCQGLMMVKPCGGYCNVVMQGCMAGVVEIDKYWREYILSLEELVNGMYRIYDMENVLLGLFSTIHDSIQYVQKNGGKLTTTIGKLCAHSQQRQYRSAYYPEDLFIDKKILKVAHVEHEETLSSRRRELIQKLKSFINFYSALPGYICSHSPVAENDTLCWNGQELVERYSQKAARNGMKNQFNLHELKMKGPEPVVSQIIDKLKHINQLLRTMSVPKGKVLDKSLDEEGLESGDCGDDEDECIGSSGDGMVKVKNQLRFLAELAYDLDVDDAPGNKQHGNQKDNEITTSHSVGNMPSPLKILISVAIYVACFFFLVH

Results are given in words; binding and its absence hold for the method and conditions named. Some binding calls cover weakened binding; strength is not graded here.

Experiment [1] deals with Human GPC3 (2119-GP; R&D systems), biotinylated (human) (UniProt P51654). Description: SPR (Biacore T200). For orientation: Surface plasmon resonance follows binding to a sensor surface in real time, without labels.
The target of experiment [2] is murine GPC3 (6938-GP; R&D systems), biotinylated (murine) (UniProt Q8CFZ4). Description: SPR (Biacore T200).

B1: lipocalin mutein of SEQ ID NO: 8 (designed binder)
chain: QDSTSDLIPAPPLSKVPLQQNFQDNQFQGKWYVVGRAGNVGLREDKDPPKMWATIYELKEDKSYDVTNVRFARKKCLYSIGTFVPGSQPGEFTLGQIKSEPGNTANLVRVVSTNYNQHAMVFFKEVYQNREIFFIILYGRTKELTSELKENFIRFSKSLGLPENHIVFPVPIDQCIDGSAWSHPQFEK
notes: hNGAL (Lcn2) mutein; also called optimized GPC3 specific lipocalin mutein
For B1, the binding entry in experiment [1] and in experiment [2] was “binds” each time.

B2: lipocalin mutein of SEQ ID NO: 11 (designed binder)
chain: QDSTSDLIPAPPLSKVPLQQNFQDNQFQGKWYVVGRAGNVALREDKDPPKMRATIYELKEDKSYDVTAVRFARKKCLYSIGTFVPGSQPGEFTLGRIKSEPGYTANLVRVVSTNYNQHAMVFFKEVYQNREIFFIILYGRTKELTSELKENFIRFSKSLGLPENHIVFPVPIDQCIDGSAWSHPQFEK
notes: as for B1
Turning to B2, the binding entry in experiment [1] and in experiment [2] was “binds” in each case.

B3: lipocalin mutein of SEQ ID NO: 12 (designed binder)
chain: QDSTSDLIPAPPLSKVPLQQNFQDNQFQGKWYVVGRAGNVALREDKDPPKMRATIYELKEDKSYDVTNVVFAGKKCKYSIGTFVPGSQPGEFTLGRIKSPPGNTANLVRVVSTNYNQHAMVFFKEVYQNREIFFIILYGRTKELTSELKENFIRFSKSLGLPENHIVFPVPIDQCIDGSAWSHPQFEK
notes: as for B1
Regarding B3, the binding entry in experiment [1] and in experiment [2] was “binds” each time.

B4: lipocalin mutein of SEQ ID NO: 16 (designed binder)
chain: QDSTSDLIPAPPLSKVPLQQNFQDNQFQGKWYVVGRAGNVGLREDKDPPKMRATIYELKEDKSYDVTGVRFDSKKVTYSIGTFVPGSQPGEFTLGQIKSEPGNTANLVRVVSTNYNQHAMVFFKEVYQNREIFFIILYGRTKELTSELKENFIRFSKSLGLPENHIVFPVPIDQAIDGSAWSHPQFEK
notes: as for B1
B4: the binding result in experiment [1] and in experiment [2] was “binds” throughout.

B5: lipocalin mutein of SEQ ID NO: 15 (designed binder)
chain: QDSTSDLIPAPPLSKVPLQQNFQDNQFQGKWYVVGRAGNVGLREDKDPPKMRATIYELKEDKSYDVTGVRFGEKKIKYSIGTFVPGSQPGEFTLGQIKSQPGDTANLVRVVSTNYNQHAMVFFKEVYQNREIFFIILYGRTKELTSELKENFIRFSKSLGLPENHIVFPVPIDQAIDGSAWSHPQFEK
notes: as for B1
With B5, the binding result in experiment [1] and in experiment [2] was “binds” in each case.

B6: lipocalin mutein of SEQ ID NO: 9 (designed binder)
chain: QDSTSDLIPAPPLSKVPLQQNFQDNQFQGKWYVVGRAGNVGLREDKDPPKMWATIYELKEDKSYDVTNVRFARKKCTYSIGTFVPGSQPGEFTLGQIKSEPGGTANLVRVVSTNYNQHAMVFFKEVYQNREIFFIILYGRTKELTSELKENFIRFSKSLGLPENHIVFPVPIDQCIDGSAWSHPQFEK
notes: as for B1
In the case of B6, the binding result in experiment [1] and in experiment [2] was “binds” in each case.

B7: lipocalin mutein of SEQ ID NO: 13 (designed binder)
chain: QDSTSDLIPAPPLSKVPLQQNFQDNQFQGKWYVVGRAGNLGLREDKDPPKMWATIYELKEDKSYDVTNVRFARKKCMYSIGTFVPGSQPGEFTLGQIKSEPGSTANLVRVVSTNYNQHAMVFFKEVYQNREIFFITLYGRTKELTSELKENFIRFSKSLGLPENHIVFPVPIDQCIDGSAWSHPQFEK
notes: as for B1
Turning to B7, the binding entry in experiment [1] and in experiment [2] was “binds” throughout.

B8: lipocalin mutein of SEQ ID NO: 14 (designed binder)
chain: QDSTSDLIPAPPLSKVPLQQNFQDNQFQGKWYVVGRAGNVGLREDKDPPKMWATIYELKEDKSYDVTNVRFAGKKVKYTIGTFVPGSQPGEFTLGQIKSEPGNTATLVRVVSTNYNQHAMVFFKEVYQNREIFFITLYGRTKELTSELKENFIRFSKSLGLPENHIVFPVPIDQAIDGSAWSHPQFEK
notes: as for B1
For the molecule B8, the binding result in experiment [1] and in experiment [2] was “binds” throughout.

B9: lipocalin mutein of SEQ ID NO: 10 (designed binder)
chain: QDSTSDLIPAPPLSKVPLQQNFQDNQFQGKWYVVGRAGNGALREDKDPPKMWATIYELKEDKSYDVTNVRFARKKCVYSIGTFVPGSQPGEFTLGPIKSEPGNTASLVRVVSTNYNQHAMVFFKEVYQNREIFFIILYGRTKELTSELKENFIRFSKSLGLPENHIVFPVPIDQCIDGSAWSHPQFEK
notes: as for B1
With B9, the binding entry in experiment [1] and in experiment [2] was “binds” in each case.

B10: lipocalin mutein of SEQ ID NO: 5 (designed binder)
chain: QDSTSDLIPAPPLSKVPLQQNFQDNQFQGKWYVVGVAGNALLREDKDPLKMRATIYELKEDKSYDVTVVSFWRKKCHYKIGTFVPGSQPGEFTLGDIKSGPGQTSNLVRVVSTNYNQHAMVFFKEVRQNREWFAITLYGRTKELTSELKENFIRFSKSLGLPENHIVFPVPIDQCIDGSAWSHPQFEK
notes: as for B1
On to B10, for which the binding entry in experiment [1] and in experiment [2] was “binds” in each case.

B11: lipocalin mutein of SEQ ID NO: 7 (designed binder)
chain: QDSTSDLIPAPPLSKVPLQQNFQDNQFQGKWYVVGVAGNGMLREDKDPLKMRATIYELKEDKSYDVTSVAFRNKKCHYKIGTFVPGSQPGEFTLGQIKSGPGETSNLVRVVSTNYNQHAMVFFKEVRQNREWFFITLYGRTKELTSELKENFIRFSKSLGLPENHIVFPVPIDQCIDGSAWSHPQFEK
notes: as for B1
Consider B11, for which the binding result in experiment [1] and in experiment [2] was “binds” throughout.

B12: lipocalin mutein of SEQ ID NO: 6 (designed binder)
chain: QDSTSDLIPAPPLSKVPLQQNFQDNQFQGKWYVVGVAGNVRLREDKDPPKMRATIYELKEDKSYDVTGVSFRGKKCHYKIGTFVPGSQPGEFTLGDIKSGPGETSNLVRVVSTNYNQHAMVFFKEVRQNREWFFITLYGRTKELTSELKENFIRFSKSLGLPENHIVFPVPIDQCIDGSAWSHPQFEK
notes: as for B1
B12: the binding result in experiment [1] and in experiment [2] was “binds” throughout.
